Data as given in US9074009B2, “Stabilized MAML peptides and uses thereof” (Dana-Farber Cancer Institute, Inc., priority 2006, dated 2015).
For at least one compound, name, drawing or mass did not settle the structure. Bridge positions count the residues as written; N and C are the ends. Square brackets hold non-standard residues; d marks the D form. Peptide text beside a SMILES is read from it. * marks the point of attachment. Biotin = O=C1N[C@H]2[C@H](CS[C@H]2CCCCC(=O)*)N1; S5 = C=CCCC[C@](C)(N)C(=O)O; βAla = NCCC(=O)O

Amino acid sequences for entries named in this document (tags omitted). Residues count along the entry.
UniProt P46531, 1760-2126 limits assumed: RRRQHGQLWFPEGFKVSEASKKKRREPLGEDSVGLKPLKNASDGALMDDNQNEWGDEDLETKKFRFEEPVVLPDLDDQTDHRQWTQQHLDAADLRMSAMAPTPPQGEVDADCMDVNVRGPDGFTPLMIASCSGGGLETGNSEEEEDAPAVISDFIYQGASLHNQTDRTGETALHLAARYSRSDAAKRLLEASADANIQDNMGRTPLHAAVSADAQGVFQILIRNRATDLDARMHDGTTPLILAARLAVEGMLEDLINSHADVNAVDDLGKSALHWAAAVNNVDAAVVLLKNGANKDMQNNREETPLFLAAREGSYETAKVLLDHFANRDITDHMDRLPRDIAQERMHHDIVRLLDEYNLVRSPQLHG
UniProt Q06330, 23-449 limits assumed: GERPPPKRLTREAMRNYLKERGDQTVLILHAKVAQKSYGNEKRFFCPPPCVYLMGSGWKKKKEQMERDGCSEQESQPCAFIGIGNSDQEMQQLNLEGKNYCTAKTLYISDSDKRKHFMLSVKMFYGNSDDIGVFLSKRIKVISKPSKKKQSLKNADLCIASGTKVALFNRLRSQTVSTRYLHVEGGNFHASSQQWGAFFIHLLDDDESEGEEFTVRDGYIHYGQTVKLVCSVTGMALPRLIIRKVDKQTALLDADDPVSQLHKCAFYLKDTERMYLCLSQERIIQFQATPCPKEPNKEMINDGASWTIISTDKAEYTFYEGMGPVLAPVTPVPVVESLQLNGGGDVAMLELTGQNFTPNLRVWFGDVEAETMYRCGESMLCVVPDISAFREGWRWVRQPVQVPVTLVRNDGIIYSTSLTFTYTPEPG

What was measured:
[1] = target: T1, pre-assembled ICN-CSL complex (Homo sapiens, UniProt P46531+Q06330); test: Surface plasmon resonance, immobilized peptide and pre-assembled ICN-CSL complex; assay type: binding; conditions: immobilized peptide, read-out: apparent Kd for pre-assembled ICN-CSL complex
T1 construct: a GST-tagged, purified ICN protein comprising the RAM and ANK domains; GST

ICN1 = target: T2, ICN1 (Homo sapiens, UniProt P46531); test: Surface plasmon resonance, binding of immobilized stapled and unstapled SAHN11 to ICN1; conditions: immobilized peptide, FIG. 9
T2 construct: a GST-tagged, purified ICN protein comprising the RAM and ANK domains; GST

CC[C@H](C)[C@H](NC(=O)[C@H](CCCNC(=N)N)NC(=O)[C@H](CCCNC(=N)N)NC(=O)[C@H](CCCNC(=N)N)NC(=O)[C@H](CC(C)C)NC(=O)[C@H](CCCNC(=N)N)NC(=O)[C@H](CCC(=O)O)NC(=O)CCNC(C)=O)C(=O)N[C@@]1(C)CCCC=CCCC[C@@](C)(C(=O)N[C@@H](Cc2c[nH]cn2)C(=O)N[C@@H](Cc2c[nH]cn2)C(=O)N[C@@H](CO)C(=O)N[C@H](C(N)=O)[C@@H](C)O)NC(=O)[C@H](CCCNC(=N)N)NC(=O)[C@H](CS)NC(=O)[C@H](CC(C)C)NC1=O [SAHN1] (Ac-[βAla]ERLRRRI[S5]LCR[S5]HHST-NH2; staple 9-13) was tested, and the Kd [1] was 98 nM.
With CC[C@H](C)[C@H](NC(=O)[C@H](CCCNC(=N)N)NC(=O)[C@H](CCCNC(=N)N)NC(=O)CCNC(=O)[C@H](CCCCNC(=O)CCCC[C@@H]1SC[C@@H]2NC(=O)N[C@@H]21)NC(C)=O)C(=O)N[C@@H](CCC(=O)O)C(=O)N[C@@H](CC(C)C)C(=O)N[C@@H](CS)C(=O)N[C@@H](CCCNC(=N)N)C(=O)N[C@@H](CCCNC(=N)N)C(=O)N[C@@H](Cc1c[nH]cn1)C(=O)N[C@@H](Cc1c[nH]cn1)C(=O)N[C@@]1(C)CCCC=CCCC[C@@](C)(C(=O)N[C@@H](CCCNC(=N)N)C(=O)N[C@@H](Cc2ccc(O)cc2)C(=O)N[C@@H](CCC(=O)O)C(=O)N[C@@H](C)C(=O)N[C@H](C(N)=O)C(C)C)NC(=O)[C@H](CCC(=O)O)NC(=O)[C@H](CS)NC(=O)[C@H]([C@@H](C)O)NC1=O [SAHN11] (Ac-K(Biotin)[βAla]RRIELCRRHH[S5]TCE[S5]RYEAV-NH2; staple 13-17; N-terminus assumed) the Kd (ICN1) was 960 nM.
For C=CCCC[C@](C)(NC(=O)[C@H](CCC(=O)O)NC(=O)[C@H](CS)NC(=O)[C@@H](NC(=O)[C@](C)(CCCC=C)NC(=O)[C@H](Cc1c[nH]cn1)NC(=O)[C@H](Cc1c[nH]cn1)NC(=O)[C@H](CCCNC(=N)N)NC(=O)[C@H](CCCNC(=N)N)NC(=O)[C@H](CS)NC(=O)[C@H](CC(C)C)NC(=O)[C@H](CCC(=O)O)NC(=O)[C@@H](NC(=O)[C@H](CCCNC(=N)N)NC(=O)[C@H](CCCNC(=N)N)NC(=O)CCNC(=O)[C@H](CCCCNC(=O)CCCC[C@@H]1SC[C@@H]2NC(=O)N[C@@H]21)NC(C)=O)[C@@H](C)CC)[C@@H](C)O)C(=O)N[C@@H](CCCNC(=N)N)C(=O)N[C@@H](Cc1ccc(O)cc1)C(=O)N[C@@H](CCC(=O)O)C(=O)N[C@@H](C)C(=O)N[C@H](C(N)=O)C(C)C [non-stapled SAHN11, reference compound] (Ac-K(Biotin)[βAla]RRIELCRRHH[S5]TCE[S5]RYEAV-NH2; N-terminus and C-terminus assumed), the Kd (ICN1) was 2630 nM.
